# Out of some 410,000 compounds screened, about 2,000 (0.49%) were called active. The shares of active, inactive and inconclusive entries below differ from those in the screen. The call rests on the fitted dose curve; tested in HEK293 reporter line. Potencies of inconclusive entries are doubtful fits and often do not repeat.
# Test: qHTS Assay for Foot and Mouth Disease Virus Antivirals: Primary Screen against the MLPCN compound library; further: nearly all actives have a fitted effect of over 55% in size
# Conditions: FMDV antiviral cell-based qHTS; activity, negative = inhibition: at 57.9 µM (top of the series)
# Potency means the concentration at half of the fitted maximal effect.
SMILES,Potency,"activity, negative = inhibition"
O=C(Nc1ccccc1)Oc1ccccc1,"inconclusive: 3.98 µM [inhibitor, full curve]",
CCOc1ccc(OCC)c(NC(=O)CN(C)S(=O)(=O)c2ccc3nc(C)sc3c2)c1,"inconclusive: 31.6 µM [inhibitor, partial curve, poor fit]",
O=c1c2ccccc2cnn1CCOc1ccccc1,"inconclusive: 10 µM [inhibitor, partial curve, poor fit]",
COc1nnc(-c2ccc(N3CCCCC3)c(NC(=O)c3ccccc3)c2)c2ccccc12,"inconclusive: 8.91 µM [inhibitor, partial curve, poor fit]",
CCN1C(=O)c2ccc(C(=O)Nc3ncc(C)s3)cc2C1=O,"inconclusive: 25.1 µM [inhibitor, single point]",
Cc1ccc(-n2c(SCc3ccccc3C)nc3[nH]ncc3c2=O)cc1C,"inconclusive: 12.6 µM [inhibitor, partial curve]",
Cc1nn(-c2ccccc2)nc1C(=O)NN,,inactive: -32%
Nc1nc(N)c2cc(CNc3ccc(Cl)c(Cl)c3)ccc2n1,"inconclusive: 35.5 µM [inhibitor, partial curve, poor fit]",
CCN(Cc1ccc(OC)c(F)c1)C(=O)c1oc2ccccc2c1COC,"inconclusive: 3.55 µM [inhibitor, full curve]",
Cc1ccc(C(=O)OCn2ncc(Cl)c(Cl)c2=O)cc1,"inconclusive: 15.8 µM [inhibitor, partial curve, poor fit]",
COc1cccc(/C=N/NC(=O)c2nnn(-c3nonc3N)c2C(C)C)c1,"inconclusive: 15.8 µM [inhibitor, partial curve]",
CN1C(=O)/C(=C/c2cccn2-c2ccc3ccccc3c2)C(=O)NC1=S,"inconclusive: 28.2 µM [inhibitor, partial curve, poor fit]",
Fc1cccc(Cc2c(-c3ccco3)nc3ccc(Br)cn23)c1,"inconclusive: 35.5 µM [inhibitor, partial curve, poor fit]",
O=c1[nH]c2ccccc2n1C1CCN(C(c2cc3ccccc3o2)c2nnnn2-c2ccc3c(c2)OCCO3)CC1 (configuration not stated),"inconclusive: 35.5 µM [inhibitor, partial curve, poor fit]",
COc1ccc(-c2csc(=Nc3ccccc3)n2CCO)cc1,"inconclusive: 25.1 µM [inhibitor, partial curve, poor fit]",
Cc1ccc(S(=O)(=O)N2CCCC2C(=O)NCCc2nc3ccccc3[nH]2)cc1 (configuration not stated),"inconclusive: 20 µM [inhibitor, partial curve, poor fit]",
Cc1ccccc1OCC(=O)Nc1ccc(N2CCN(C(=O)c3ccco3)CC2)cc1,"inconclusive: 28.2 µM [inhibitor, partial curve, poor fit]",
Cc1ccc2cccc(OCC(=O)Nc3cccc(S(=O)(=O)N4CCCC4)c3)c2n1,"inconclusive: 39.8 µM [inhibitor, partial curve, poor fit]",
Cc1ccc(C)c(S(=O)(=O)N2CCN(C(=O)Cc3ccsc3)CC2)c1,"inconclusive: 4.47 µM [inhibitor, partial curve, poor fit]",

SMILES,Potency,"activity, negative = inhibition"
CC(C)Cn1c(=O)c2c(nc3n2CC(C)CN3Cc2ccccc2)n(C)c1=O (configuration not stated),"inconclusive: 15.8 µM [inhibitor, partial curve, poor fit]",
Cc1ccc(OCCOc2cccc(C=C3C(=O)NC(=O)NC3=O)c2)cc1,"inconclusive: 11.2 µM [inhibitor, single point]",
Cc1ccc2c(c1)-c1c(cnn1CC(=O)N(Cc1ccco1)C1CCCCC1)CO2,,inactive: -31.6%
CCOc1ccccc1NC(=O)CSc1ccc(-c2sc(C)nc2C)nn1,"inconclusive: 25.1 µM [inhibitor, partial curve, poor fit]",
CCOC(=O)C1CCN(S(=O)(=O)c2csc(C(N)=O)c2)CC1,"inconclusive: 8.91 µM [inhibitor, partial curve]",
CN(C)c1ccc(-c2nc3ccccn3c2/N=C/c2ccc(Br)cc2)cc1,"inconclusive: 12.6 µM [inhibitor, partial curve, poor fit]",
CCc1ccccc1NC(=O)C(=O)NCC(c1cccnc1)N1CCN(c2ccccc2F)CC1 (configuration not stated),"inconclusive: 39.8 µM [inhibitor, partial curve, poor fit]",
CCCSc1nc2sc3c(c2c(=O)n1Cc1ccccc1)CC(C)(CC)OC3 (configuration not stated),"inconclusive: 2.82 µM [inhibitor, full curve]",
Cc1cc(C)n(-c2ccc(C(=O)Nc3ccc(C)c(S(=O)(=O)N(C)C)c3)cc2)n1,"inconclusive: 15.8 µM [inhibitor, partial curve, poor fit]",
COc1ccc([N+](=O)[O-])cc1/C=N/NC(=O)/C(=C\c1cccs1)NC(=O)c1ccccc1,"inconclusive: 6.31 µM [inhibitor, partial curve]",
CCOC(=O)C1(Cc2cccc(OC)c2)CCN(Cc2cccn2-c2ccccn2)CC1,"inconclusive: 17.8 µM [inhibitor, partial curve, poor fit]",
CCOc1ccc(NC(=O)c2ccccc2O)cc1,"inconclusive: 17.8 µM [inhibitor, single point]",
CCOC(=O)c1cccc(NC(=O)NCc2ccc3c(c2)CCN3C(=O)c2ccccc2)c1,"inconclusive: 39.8 µM [inhibitor, partial curve, poor fit]",
Cc1ccccc1NC(=O)CN1CCC(n2nnc3ccccc32)CC1,"inconclusive: 11.2 µM [inhibitor, partial curve, poor fit]",
Clc1ccc(-n2nnnc2Sc2ncnc3sccc23)cc1,"inconclusive: 39.8 µM [inhibitor, partial curve, poor fit]",
C=CCN=C1NN=C(c2cc(C)n(CC=C)c2C)CS1,"inconclusive: 17.8 µM [inhibitor, partial curve, poor fit]",
CCOC(=O)c1nnc(-c2cccs2)nc1Oc1ccc(Cl)cc1,"inconclusive: 28.2 µM [inhibitor, partial curve, poor fit]",
COc1ccc(-n2nnnc2S(=O)(=O)CC(=O)N2CCCCC2)cc1,"inconclusive: 20 µM [inhibitor, partial curve, poor fit]",

# Entries from the list above containing a furan ring, fused or not:
SMILES,Potency,"activity, negative = inhibition"
CCN(Cc1ccc(OC)c(F)c1)C(=O)c1oc2ccccc2c1COC,"inconclusive: 3.55 µM [inhibitor, full curve]",
Fc1cccc(Cc2c(-c3ccco3)nc3ccc(Br)cn23)c1,"inconclusive: 35.5 µM [inhibitor, partial curve, poor fit]",
O=c1[nH]c2ccccc2n1C1CCN(C(c2cc3ccccc3o2)c2nnnn2-c2ccc3c(c2)OCCO3)CC1 (configuration not stated),"inconclusive: 35.5 µM [inhibitor, partial curve, poor fit]",
Cc1ccccc1OCC(=O)Nc1ccc(N2CCN(C(=O)c3ccco3)CC2)cc1,"inconclusive: 28.2 µM [inhibitor, partial curve, poor fit]",
Cc1ccc2c(c1)-c1c(cnn1CC(=O)N(Cc1ccco1)C1CCCCC1)CO2,,inactive: -31.6%

# Reference: PubChem BioAssay AID1347131 (National Center for Advancing Translational Sciences (NCATS), 2019)
